The values below come from patent publication US6913877B1 (priority 2000, dated 2005).

SMILES strings stand for the structures. “Also recorded” adds a separate entry of the source.

Experiment [1] concerns Betta splendens erythrophores. Type of experiment: cell-based.

`COc1ccc([C@@H]2Sc3ccccc3N(CCN(C)C)C(=O)[C@@H]2OC(C)=O)cc1` [Diltiazem]: the melanophore response result with melanophores is reported as “does not alter melanophores”. Also, the “erythrophore pigment response after pre-treatment with norepinephrine” value in experiment [1] was “produces pigment dispersion; also recorded: failed to induce pigment dispersion response”.
